In US20230172897A1, “METHODS OF TREATING BREAST CANCERS WITH SELECTIVE ANDROGEN RECEPTOR MODULATORS AND ADDITIONAL THERAPEUTIC AGENTS” (VERU, INC., priority 2021, published 2023):
Results are given in words; binding and its absence hold for the method and conditions named. Binding seen in cells or lysates may run through a third protein. Some entries that bind do so weakly or less than the wild type.

Amino acid sequences for entries named in this document (tags omitted). Residues count along the entry.
UniProt P10275: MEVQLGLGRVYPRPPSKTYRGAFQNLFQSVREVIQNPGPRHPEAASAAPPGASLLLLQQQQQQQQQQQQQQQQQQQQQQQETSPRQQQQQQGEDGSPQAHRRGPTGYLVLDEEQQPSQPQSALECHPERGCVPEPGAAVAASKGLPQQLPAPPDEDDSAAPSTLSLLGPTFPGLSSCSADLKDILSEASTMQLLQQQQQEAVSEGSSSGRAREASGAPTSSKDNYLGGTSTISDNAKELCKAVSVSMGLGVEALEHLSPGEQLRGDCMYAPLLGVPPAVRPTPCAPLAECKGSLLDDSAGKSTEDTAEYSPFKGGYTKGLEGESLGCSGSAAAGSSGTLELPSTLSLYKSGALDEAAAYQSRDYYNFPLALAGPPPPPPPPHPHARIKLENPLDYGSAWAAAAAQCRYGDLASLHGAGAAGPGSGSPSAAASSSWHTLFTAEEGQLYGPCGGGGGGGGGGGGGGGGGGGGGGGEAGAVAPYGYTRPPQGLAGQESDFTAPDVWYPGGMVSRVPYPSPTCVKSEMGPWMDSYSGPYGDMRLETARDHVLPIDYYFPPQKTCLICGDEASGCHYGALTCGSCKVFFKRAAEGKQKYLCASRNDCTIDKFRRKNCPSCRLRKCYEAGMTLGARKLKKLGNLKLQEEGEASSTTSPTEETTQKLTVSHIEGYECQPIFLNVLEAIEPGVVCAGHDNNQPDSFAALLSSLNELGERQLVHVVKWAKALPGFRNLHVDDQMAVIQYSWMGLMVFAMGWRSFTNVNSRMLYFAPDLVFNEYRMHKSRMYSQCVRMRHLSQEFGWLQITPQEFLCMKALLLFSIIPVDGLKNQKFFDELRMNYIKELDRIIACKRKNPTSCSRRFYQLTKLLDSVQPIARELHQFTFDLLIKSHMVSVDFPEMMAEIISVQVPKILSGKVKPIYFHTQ
UniProt Q15788, residues 2-1441: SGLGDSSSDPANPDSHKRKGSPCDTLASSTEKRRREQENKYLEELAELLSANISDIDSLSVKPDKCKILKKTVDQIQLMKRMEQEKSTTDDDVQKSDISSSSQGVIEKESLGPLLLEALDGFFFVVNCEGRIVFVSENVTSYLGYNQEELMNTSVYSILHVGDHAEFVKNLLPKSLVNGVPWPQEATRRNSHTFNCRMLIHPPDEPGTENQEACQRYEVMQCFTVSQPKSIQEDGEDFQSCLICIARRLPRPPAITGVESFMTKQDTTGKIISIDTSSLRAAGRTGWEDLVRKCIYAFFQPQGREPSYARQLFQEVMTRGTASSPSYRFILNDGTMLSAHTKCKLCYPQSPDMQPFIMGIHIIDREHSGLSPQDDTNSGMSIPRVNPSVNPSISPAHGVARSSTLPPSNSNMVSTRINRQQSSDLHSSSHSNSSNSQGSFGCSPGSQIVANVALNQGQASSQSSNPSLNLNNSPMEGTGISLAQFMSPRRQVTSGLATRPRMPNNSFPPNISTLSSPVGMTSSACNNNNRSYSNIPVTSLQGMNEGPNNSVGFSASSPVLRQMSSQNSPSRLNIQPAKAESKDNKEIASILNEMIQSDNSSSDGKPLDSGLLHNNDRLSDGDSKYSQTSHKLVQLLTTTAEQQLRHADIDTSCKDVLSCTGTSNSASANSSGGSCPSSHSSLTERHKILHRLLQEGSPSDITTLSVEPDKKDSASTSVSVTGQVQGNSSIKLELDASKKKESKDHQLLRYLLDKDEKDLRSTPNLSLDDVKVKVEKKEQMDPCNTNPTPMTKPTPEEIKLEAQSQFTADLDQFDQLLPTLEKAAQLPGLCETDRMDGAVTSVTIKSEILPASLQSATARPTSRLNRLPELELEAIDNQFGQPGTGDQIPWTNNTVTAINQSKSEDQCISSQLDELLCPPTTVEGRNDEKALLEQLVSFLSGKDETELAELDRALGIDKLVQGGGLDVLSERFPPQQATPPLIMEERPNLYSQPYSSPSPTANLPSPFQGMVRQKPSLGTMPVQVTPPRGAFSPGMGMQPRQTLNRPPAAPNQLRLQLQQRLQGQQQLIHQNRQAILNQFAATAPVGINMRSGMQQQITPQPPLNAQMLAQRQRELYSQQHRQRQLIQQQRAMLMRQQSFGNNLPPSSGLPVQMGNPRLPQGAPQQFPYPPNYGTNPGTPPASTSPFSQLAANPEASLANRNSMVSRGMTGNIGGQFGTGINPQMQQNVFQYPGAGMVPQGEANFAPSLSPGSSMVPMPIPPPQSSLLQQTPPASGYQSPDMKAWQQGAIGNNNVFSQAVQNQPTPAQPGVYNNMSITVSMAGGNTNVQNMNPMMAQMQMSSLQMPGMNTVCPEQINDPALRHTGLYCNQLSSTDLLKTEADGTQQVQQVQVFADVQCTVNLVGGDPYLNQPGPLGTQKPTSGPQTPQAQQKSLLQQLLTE

Legend:
[1] = biological target: androgen receptor (human (patient-derived xenograft HCI-13)) (UniProt P10275); assay: co-immunoprecipitation with AR antibody from HCI-13 tumor extracts (vehicle or Formula IX), Western blot for SRC-1
[2] = biological target: androgen receptor (human (patient-derived xenograft HCI-13)) (UniProt P10275); assay: co-immunoprecipitation with AR antibody from HCI-13 tumor extracts, Western blot for SRC-1 (legend of FIG. 38G)

binding [1]: binds
binding [2]: binds
Substance: steroid receptor coactivator-1 (from UniProt Q15788 2-1441)
